Laboratory results published in article PMC8812994.
No constants are given. Whether binding was seen depends on the method and setting. Binding seen in cells or lysates may run through a third protein. Binding calls can cover weak binding; strength is not graded here. Sequences can lack the tags named with a protein.

Target: T1, Recombinant His-tagged FlaA (Vibrio anguillarum) (UniProt Q60246)
T1 sequence: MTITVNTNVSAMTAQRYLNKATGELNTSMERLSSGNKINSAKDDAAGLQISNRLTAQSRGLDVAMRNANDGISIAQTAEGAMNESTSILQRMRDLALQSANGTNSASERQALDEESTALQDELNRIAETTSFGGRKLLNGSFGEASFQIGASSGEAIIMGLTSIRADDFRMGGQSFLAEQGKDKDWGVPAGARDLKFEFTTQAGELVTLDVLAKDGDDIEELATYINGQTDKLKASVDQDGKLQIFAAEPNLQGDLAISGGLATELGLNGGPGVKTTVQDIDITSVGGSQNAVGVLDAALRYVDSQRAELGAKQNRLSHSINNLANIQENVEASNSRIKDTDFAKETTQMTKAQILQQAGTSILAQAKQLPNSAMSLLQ
Assay: pull-down; His-tagged FlaA (10 μg) incubated with shrimp hemocytes homogenate supernatant (15 ml, PBS) at 4°C overnight; Ni-NTA resin, eluted with 250 mM imidazole; western blotting with anti-MjShoc2 and anti-6His antibodies; only the target purified

native MjShoc2 from shrimp hemocytes
binding: binds
